# Results are given in words; binding and its absence hold for the method and conditions named. Where a sequence is shown, tags or fusion partners need not be part of it.
# T1: His6-Sumo tagged SepF_(ΔML,K125E/F131A) (Corynebacterium glutamicum) (UniProt Q8NNN6)
# T1 sequence: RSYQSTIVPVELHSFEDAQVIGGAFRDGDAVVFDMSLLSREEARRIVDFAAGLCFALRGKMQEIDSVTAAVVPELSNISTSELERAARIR
# B1: FtsZCTD peptide (conserved C-terminal domain of C. glutamicum FtsZ, 10 residues) (peptide)
# peptide: DDLDVPSFLQ
# notes: C-terminal 10 residues of FtsZ (cg2366), Corynebacterium glutamicum; the printed residues D436, P438 and F440 place the peptide at 433-442; also called FtsZ C-terminal domain peptide; source: synthetic peptide, bought: Genosphere
# Target: T1, His6-Sumo tagged SepF_(ΔML,K125E/F131A) (Corynebacterium glutamicum)
# Assay: SPR; Biacore T200, 25 °C, 25 mM HEPES pH 8, 150 mM KCl, 0.1 mM EDTA; His6-Sumo SepF variants covalently immobilised on NTA chips (3000-4000 RU); FtsZCTD 1.56 to 400 µM injected; steady-state fit; apparent Kd; both purified
binder,measurement,value
B1,binding,no binding (tested: 1.56 to 400 µM FtsZCTD)
